Reference: patent US10076509B2, “Nested particles and the use thereof for coordinated delvery of active agents” (Board of Regents, the University of Texas System, priority 2015, dated 2018)
For at least one compound, name, drawing or mass did not settle the structure.

What was measured:
[1] = Release of rapamycin and paclitaxel from nested nanoparticles; type: physicochemical; details: rapamycin in outer shell, paclitaxel in polymeric core
Description: FIG. 14. Nested nanoparticles containing both rapamycin and paclitaxel release drug in a time and sequential fashion.

[2] = Finite Element modeling of release kinetics from nested nanoparticles; details: between water and solid material
Description: Due to the fact that the physico-chemical properties of the core and shell, as well as bodipy and rhodamine, are different, a computational method accounting for diffusivities and molecule partitioning was used to analyze release kinetics from nested nanoparticles. Use of the model helped determine that sequential release may be achieved and controlled not only by different diffusion properties in different phases, but also partitioning. […] The model estimated experimental release curves by using partitioning coefficients of 5.0×109 and 2.2×1011 for bodipy and rhodamine, respectively (FIG. 4a). The half-time of release of the maximum releasable material was estimated to be 15 h for the shell and 46 h for the core. The diffusivity of rhodamine inside the PLGA nanoparticle matrix was estimated to be 4×10^−10 cm2/s, which was approximately 104 times lower than that in water, while that of bodipy in the shell was reduced by only 5 times compared to that in water. […] This is illustrated in the distinct phases of dominant fluxes over time (FIG. 4b).
A Finite Element (FE) method was used to model drug diffusion. The model included partitioning conditions at the surfaces, in this case between the core and the surrounding fluid. Thus, aside from the incremental-iterative system of mass balance equations (Kojic et al., 2008; Ziemys et al., 2011; Kojic et al., 2011): […]

Row | Structure (SMILES) | Release from nested nanoparticles [1] | Partitioning coefficient used to fit experimental release curves [2]
1 | CO[C@H]1C[C@@H]2CC[C@@H](C)[C@@](O)(O2)C(=O)C(=O)N2CCCC[C@H]2C(=O)O[C@H]([C@H](C)C[C@@H]2CC[C@@H](O)[C@H](OC)C2)CC(=O)[C@H](C)/C=C(\C)[C@@H](O)[C@@H](OC)C(=O)[C@H](C)C[C@H](C)/C=C/C=C/C=C/1C [Rapamycin] | released rapidly and prior to paclitaxel | 
2 | O=C(COc1ccc(/C=C/C2=[N+]3C(=Cc4ccc(-c5cccs5)n4[B-]3(F)F)C=C2)cc1)NCCCCCC(=O)ON1C(=O)CCC1=O [bodipy] |  | 5.0×109
